Measurements reported in PubChem BioAssay AID652243 (Drosophila RNAi Screening Center, 2013)
Test: 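Fly genes required for human androgen receptor driven transcription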 (primary screen). Cell system: Drosophila S2R+ cells. Reagent: long dsRNA against Drosophila genes. Duration: 72 h (48 h, then 24 h hormone). Treatment: synthetic androgen R1881 at 10 nM for 24 h. Measurement: 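Per-well raw luminescence of the androgen-driven firefly reporter and of the Renilla control, two replicates each, without normalisation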. Scale: firefly reporter light: higher = more light from androgen-responsive reporter; Renilla control light: higher = more constitutive control signal (cell number, transfection). Hit rule: 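Hit when the log firefly-to-Renilla ratio dropped or increased by a fixed fold versus the mean of GFP or LacZ controls across duplicate plates; lowering cut given as 1.5 and as 3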. Meaning of the calls: active = hit: reporter lowered or raised; inactive = no hit.
The screen tested about 24,000 reagents; below is a random part of those that have a named target and a result. In the full data, 246 (1%) got an active call. 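Plates not normalised; calls are printed but the firefly/Renilla ratio behind them is not deposited; fold cut for lowering reported inconsistently.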 Raw values are not corrected between plates. Not stated in the record: the amount of reagent.

After knock-down of CG14292 [DRSC14772] the results were firefly reporter light, replicate 1 = 1.82e5; firefly reporter light, replicate 2 = 1.42e5; Renilla control light, replicate 1 = 1.88e6; Renilla control light, replicate 2 = 1.94e6; inactive. CG1246 [DRSC08275] scored firefly reporter light, replicate 1 = 1.36e5; firefly reporter light, replicate 2 = 84035; Renilla control light, replicate 1 = 2.26e6; Renilla control light, replicate 2 = 1.11e6; inactive. Depletion of CG43163 [DRSC10748] came out at: firefly reporter light, replicate 1 = 1.92e5; firefly reporter light, replicate 2 = 1.99e5; Renilla control light, replicate 1 = 2.60e6; Renilla control light, replicate 2 = 1.27e6; inactive. After knock-down of CG43163 [DRSC23670], the record shows firefly reporter light, replicate 1 = 5.56e5; firefly reporter light, replicate 2 = 8.38e5; Renilla control light, replicate 1 = 8.41e5; Renilla control light, replicate 2 = 9.33e5; inactive. ncm [DRSC02179] scored firefly reporter light, replicate 1 = 9.24e5; firefly reporter light, replicate 2 = 7.59e5; Renilla control light, replicate 1 = 1.34e6; Renilla control light, replicate 2 = 1.42e6; inactive. After knock-down of ncm [DRSC29504] the results were firefly reporter light, replicate 1 = 2.20e5; firefly reporter light, replicate 2 = 2.07e5; Renilla control light, replicate 1 = 3.56e5; Renilla control light, replicate 2 = 3.56e5; inactive.

Silencing of tomboy40 [DRSC04918] came out at: firefly reporter light, replicate 1 = 1.09e6; firefly reporter light, replicate 2 = 8.26e5; Renilla control light, replicate 1 = 1.69e6; Renilla control light, replicate 2 = 1.39e6; inactive. After knock-down of tomboy40 [DRSC28442], the screen gave firefly reporter light, replicate 1 = 4.39e5; firefly reporter light, replicate 2 = 9.56e5; Renilla control light, replicate 1 = 6.61e5; Renilla control light, replicate 2 = 9.86e5; inactive. CG31496 [DRSC12547] showed firefly reporter light, replicate 1 = 3.95e5; firefly reporter light, replicate 2 = 4.18e5; Renilla control light, replicate 1 = 2.49e6; Renilla control light, replicate 2 = 3.37e6; inactive. With knock-down of CG31496 [DRSC27899], the screen gave firefly reporter light, replicate 1 = 5.68e5; firefly reporter light, replicate 2 = 3.86e5; Renilla control light, replicate 1 = 1.79e6; Renilla control light, replicate 2 = 1.23e6; inactive.

2 of these entries, reformatted.
predicted target,dsRNA,"firefly reporter light, replicate 1","firefly reporter light, replicate 2","Renilla control light, replicate 1","Renilla control light, replicate 2",Call
ncm,DRSC29504,2.20e5,2.07e5,3.56e5,3.56e5,inactive
tomboy40,DRSC04918,1.09e6,8.26e5,1.69e6,1.39e6,inactive

Next entries follow:
CG13801 [DRSC08335] scored firefly reporter light, replicate 1 = 72865; firefly reporter light, replicate 2 = 1.57e5; Renilla control light, replicate 1 = 1.02e6; Renilla control light, replicate 2 = 1.19e6; inactive. Against a10 [DRSC11319], the entry reads firefly reporter light, replicate 1 = 1.79e5; firefly reporter light, replicate 2 = 1.52e5; Renilla control light, replicate 1 = 1.80e6; Renilla control light, replicate 2 = 1.65e6; inactive. APC10 [DRSC06071] gave firefly reporter light, replicate 1 = 1.05e5; firefly reporter light, replicate 2 = 1.58e5; Renilla control light, replicate 1 = 1.62e6; Renilla control light, replicate 2 = 1.62e6; inactive. For Argp [DRSC16510] the deposit lists firefly reporter light, replicate 1 = 2.11e5; firefly reporter light, replicate 2 = 1.12e5; Renilla control light, replicate 1 = 2.34e6; Renilla control light, replicate 2 = 2.55e6; inactive. Argp [DRSC36981] scored inactive.
